Results: patent JP2007302676A
Results are given in words; binding and its absence hold for the method and conditions named. Some binding calls cover weakened binding; strength is not graded here.

Protein sequences, listed by entry. Tags and fused reporters are not part of them. Lines headed by an entry give the natural chain unless they say otherwise; changes in a name come on top.
UniProt P13612: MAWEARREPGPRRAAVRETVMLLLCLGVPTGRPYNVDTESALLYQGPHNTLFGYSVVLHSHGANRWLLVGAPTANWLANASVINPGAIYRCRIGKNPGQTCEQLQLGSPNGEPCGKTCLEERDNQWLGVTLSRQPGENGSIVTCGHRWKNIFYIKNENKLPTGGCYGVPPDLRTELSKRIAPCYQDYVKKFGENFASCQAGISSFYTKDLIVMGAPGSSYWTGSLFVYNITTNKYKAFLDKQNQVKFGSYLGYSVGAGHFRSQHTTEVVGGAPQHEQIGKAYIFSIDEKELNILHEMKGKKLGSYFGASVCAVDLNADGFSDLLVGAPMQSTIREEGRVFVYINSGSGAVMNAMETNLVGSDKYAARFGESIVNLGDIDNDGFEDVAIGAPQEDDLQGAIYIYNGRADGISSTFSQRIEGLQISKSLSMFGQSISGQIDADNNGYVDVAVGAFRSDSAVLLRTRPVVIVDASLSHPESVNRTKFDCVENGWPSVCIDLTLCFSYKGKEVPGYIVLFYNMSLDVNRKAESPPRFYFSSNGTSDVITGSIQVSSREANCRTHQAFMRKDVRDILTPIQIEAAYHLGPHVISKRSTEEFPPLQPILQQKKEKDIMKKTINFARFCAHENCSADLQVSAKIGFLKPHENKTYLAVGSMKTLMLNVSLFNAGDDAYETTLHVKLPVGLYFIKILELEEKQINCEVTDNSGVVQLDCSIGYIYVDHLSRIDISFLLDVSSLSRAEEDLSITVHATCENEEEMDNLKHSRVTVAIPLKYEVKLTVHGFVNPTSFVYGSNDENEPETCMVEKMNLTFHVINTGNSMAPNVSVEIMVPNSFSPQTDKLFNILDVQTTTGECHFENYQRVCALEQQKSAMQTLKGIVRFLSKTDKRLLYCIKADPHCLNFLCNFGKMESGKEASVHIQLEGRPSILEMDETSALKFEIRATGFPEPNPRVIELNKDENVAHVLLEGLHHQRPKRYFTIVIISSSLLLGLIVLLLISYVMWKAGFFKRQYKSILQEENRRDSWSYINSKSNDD
UniProt P26010: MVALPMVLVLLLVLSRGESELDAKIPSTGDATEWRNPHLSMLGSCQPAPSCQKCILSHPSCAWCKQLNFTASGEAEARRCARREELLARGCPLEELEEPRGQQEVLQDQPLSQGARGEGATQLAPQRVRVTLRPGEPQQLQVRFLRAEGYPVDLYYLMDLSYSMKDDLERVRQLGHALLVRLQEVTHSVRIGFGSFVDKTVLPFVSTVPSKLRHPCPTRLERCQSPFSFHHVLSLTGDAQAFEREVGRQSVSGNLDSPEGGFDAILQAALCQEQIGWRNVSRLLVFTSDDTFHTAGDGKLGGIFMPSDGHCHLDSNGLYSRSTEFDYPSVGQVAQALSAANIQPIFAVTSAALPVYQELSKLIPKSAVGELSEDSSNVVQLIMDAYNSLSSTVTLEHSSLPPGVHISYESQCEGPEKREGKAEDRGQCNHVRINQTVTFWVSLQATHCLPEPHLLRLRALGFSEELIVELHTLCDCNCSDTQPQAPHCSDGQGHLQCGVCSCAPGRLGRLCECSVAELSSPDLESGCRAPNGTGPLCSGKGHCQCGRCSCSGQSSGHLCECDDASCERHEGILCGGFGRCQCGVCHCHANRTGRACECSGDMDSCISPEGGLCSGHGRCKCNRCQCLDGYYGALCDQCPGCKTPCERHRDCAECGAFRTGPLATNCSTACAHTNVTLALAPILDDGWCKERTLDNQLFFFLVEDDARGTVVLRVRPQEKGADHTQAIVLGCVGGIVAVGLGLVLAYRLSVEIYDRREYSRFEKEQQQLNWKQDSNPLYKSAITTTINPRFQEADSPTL

Molecular target: 全長ヒトインテグリンアルファ4ベータ7 (expressed in 293 cells, purified by Fib504 affinity chromatography) (human) (UniProt P13612+P26010)
Assay: phage-displayed Fab on immobilised human alpha4beta7

binding: binds
B1: Fib504K−RFグラフト (Fab) (Fab, V domains shown)
VH: EVQLVESGGGLVQPGGSLRLSCAASGFFITNNYWGWVRQAPGKGLEWVGYISYSGSTSYNPSLKSRFTISRDTSKNTFYLQMNSLRAEDTAVYYCAMTGSSGYFDFWGQGTLVTVSS
VL: DIQMTQSPSSLSASVGDRVTITCRASESVDTYLHWYQQKPGKAPKLLIKYASQSISGVPSRFSGSGSGTDFTLTISSLQPEDFATYYCQQGNSLPNTFGQGTKVEIKR
